This is an account of results in US8329720B1 (Pisgah Laboratories, Inc., priority 2007, dated 2012).

A short description of data set [1]: Intrinsic dissolution profile as a function of pH. It is filed as physicochemical. Particulars: 0.1N HCl (pH 1), pH 4.5 acetate buffer, pH 6.8 phosphate buffer, water; 37° C.; result in words. As to the method:
The opioid salts of the present invention were tested to determine their dissolution profile as a function of pH, and as a function of ethanol concentration in acidic media (dose dumping). To perform these experiments the buffered dissolution media and acidic ethanol solutions were prepared as identified herein, “Preparation of Solutions”. The test procedure was derived from the procedures cited in the United States Pharmacopeia and National Formulary (USP), numbers <1087> and <711>. The dose dumping procedure was adopted from the United States Food and Drug Administration's guidance regarding the dose dumping of oxymorphone. The sampling interval and regimen was defined and each sample analyzed by HPLC. Results from the HPLC analyses were plotted as a function of time and dissolution condition (FIG. 37 through FIG. 97 inclusive, and FIGS. 102-105, 109, 110, 114 and 115). This procedure was used to obtain the pH and dose dumping dissolution profiles disclosed herein. […] All activities within the procedure were conducted and executed for each of the compounds reported herein. Unless otherwise stated HPLC measurements were done and reported at ambient temperature and dissolution testing was done nominally at 37° C. […]

Data set [2] is described as follows: Intrinsic dissolution dose dumping profile (ethanol concentration in acidic media, FDA protocol). It counts as physicochemical. Conditions: 0.1N HCl with 0, 5, 20 and 40% ethanol; result in words. The text has this:
A general overview of this concern may be found at http://www.fda.gov/ohrms/dockets/AC/05/slides/2005-4187S2—02_Hussain.ppt. This Oct. 26, 2005 overview presentation by the deputy director OPS/CDER of the FDA and entitled “Preventing Alcohol Induced Dose Dumping is a Desired Product Design Feature” describes the dose-dumping phenomenon. Dose dumping can be employed by those with the deliberate intention of abusing the drug, but may also occur during the normal/moderate consumption of alcohol while taking a prescribed medication. Simply, dose dumping is that condition “in which the complete dose may be more rapidly released from the dosage form than intended, creating a potential safety risk”. Clearly, with the opioid narcotics, dose dumping for the intention of experiencing the “high” or rush, may have severe, even deadly consequences. The presentation further categorizes the results from dose dumping testing as either vulnerable, rugged or uncertain. […]
The opioid salts of the present invention were tested to determine their dissolution profile as a function of pH, and as a function of ethanol concentration in acidic media (dose dumping). […] The sampling interval and regimen was defined and each sample analyzed by HPLC. […]

`CN1CC[C@]23c4c5ccc(O)c4O[C@H]2C(=O)CC[C@H]3[C@H]1C5.Cl` [hydromorphone hydrochloride, reference compound]: the pH dissolution profile result in data set [1] was “immediate release (IR) characteristics”. Moreover, the “dose dumping dissolution profile” value in data set [2] is given as “exhibit dose dumping propensities”. For the compound `CN1CC[C@]23c4c5ccc(O)c4O[C@H]2[C@@H](O)C=C[C@H]3[C@H]1C5.O=S(=O)(O)O` [morphine sulfate, reference compound], the pH dissolution profile result in data set [1] is given as “immediate release (IR) characteristics”.
